Results taken from patent US11713297B2, “Crystalline form of N-butyldeoxygalactonojirimycin” (IDORSIA PHARMACEUTICALS LTD, priority 2017, dated 2023).
For at least one compound, name, drawing or mass did not settle the structure.

Test: Particle size distribution (PSD) by laser diffraction, wet dispersion
Assay type: physicochemical
Conditions: crystalline form 1; average of at least five crystallization batches, each measured in triplicate
From the text: Particle size distributions are defined herein as D10, D50 and D90. D10, D50 and D90 represent the particle diameter corresponding to the respective percentage in volume (i.e. 10%, 50%, 90%) of a given sample which is below the indicated diameter. For example, a D50 from about 70 μm to about 150 μm means that 50% of the volume of a given sample has a diameter which is equal or below a diameter that is in the range between about 70 μm and about 150 μm. Particle size distributions may be determined using standard procedures such as laser diffraction.
Particle Size Distribution (PSD)
PSD measurements were performed by laser-diffraction using a wet dispersion method. Data were collected on a Mastersizer 2000 (Malvern) equipped with a dispersion unit Hydro 2000S in the size range from 0.020 μm to 2000.000 μm. Typically, about 100 mg sample in about 20 ml Tegiloxan 3 (silicon oil, CAS Nr. 9016-00-6) is dispersed in an ultrasonic bad for about 30 s and subsequently added to a prefilled with Tegiloxan 3 dispersion unit until obscuration of about 10% to about 30% is achieved. After a circulation time of 5 min, a sample measurement is performed. Reported particle size values (D10, D50 and D90) represent an average value of 3 measurements.
Particle size measurements of COMPOUND in crystalline form 1 as obtained in Examples 1, 2 and Reference Example 3 are performed using the method described herein. Each data point in Table 3 represents an average value obtained from at least five separate crystallization batches, each measured in triplicate.

Compound: CCCCN1C[C@H](O)[C@@H](O)[C@@H](O)[C@H]1CO [Example 1, (2R,3S,4R,5S)-1-butyl-2-(hydroxymethyl)piperidine-3,4,5-triol]
- D10: 11 μm
- D50: 79 μm
- D90: 169 μm
